{"sequences": {"note": "The chains behind the UniProt entries cited, without tags or fusion partners. Residues count along the entry.", "UniProt Q9Z0F8, residues 215-827": "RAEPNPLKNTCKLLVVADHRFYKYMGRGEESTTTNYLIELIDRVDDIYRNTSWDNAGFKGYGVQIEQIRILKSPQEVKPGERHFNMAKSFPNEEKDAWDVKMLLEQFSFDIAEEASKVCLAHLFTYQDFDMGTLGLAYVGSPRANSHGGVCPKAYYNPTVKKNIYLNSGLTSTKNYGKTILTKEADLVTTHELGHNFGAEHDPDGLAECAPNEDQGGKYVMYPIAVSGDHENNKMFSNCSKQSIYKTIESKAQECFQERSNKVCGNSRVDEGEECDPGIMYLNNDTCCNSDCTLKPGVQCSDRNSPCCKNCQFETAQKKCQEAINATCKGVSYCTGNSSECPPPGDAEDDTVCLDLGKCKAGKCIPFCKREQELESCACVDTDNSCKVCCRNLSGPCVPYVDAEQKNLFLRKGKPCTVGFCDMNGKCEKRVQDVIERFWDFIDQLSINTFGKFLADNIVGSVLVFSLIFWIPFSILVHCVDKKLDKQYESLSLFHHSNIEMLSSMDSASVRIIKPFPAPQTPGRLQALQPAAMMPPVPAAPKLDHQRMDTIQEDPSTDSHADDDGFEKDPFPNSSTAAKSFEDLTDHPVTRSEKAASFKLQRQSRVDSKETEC"}, "source": "paper PMC5436907", "key": {"[1]": {"biological_target": "T1, mouse iRhom2^ΔNT-3xHA (mouse) (UniProt Q80WQ6)", "T1 sequence": "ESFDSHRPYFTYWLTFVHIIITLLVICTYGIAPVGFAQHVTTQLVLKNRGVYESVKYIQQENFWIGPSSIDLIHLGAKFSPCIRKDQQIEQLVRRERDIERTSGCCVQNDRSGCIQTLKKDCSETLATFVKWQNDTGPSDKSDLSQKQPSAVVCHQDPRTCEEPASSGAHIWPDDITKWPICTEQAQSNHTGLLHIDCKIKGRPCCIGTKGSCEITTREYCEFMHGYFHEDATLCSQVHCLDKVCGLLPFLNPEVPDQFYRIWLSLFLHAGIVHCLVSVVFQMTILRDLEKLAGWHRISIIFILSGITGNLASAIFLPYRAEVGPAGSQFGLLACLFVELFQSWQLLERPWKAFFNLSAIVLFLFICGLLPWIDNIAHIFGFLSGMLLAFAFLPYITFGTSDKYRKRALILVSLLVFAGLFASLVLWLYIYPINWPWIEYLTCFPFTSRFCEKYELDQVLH", "experiment": "co-IP; WT MEFs transduced with HA-tagged iRhom2 forms; HA immunoprecipitates probed for TACE"}, "[2]": {"biological_target": "T2, mouse iRhom2^Site1-3-3xHA (mouse) (UniProt Q80WQ6)", "T2 sequence": "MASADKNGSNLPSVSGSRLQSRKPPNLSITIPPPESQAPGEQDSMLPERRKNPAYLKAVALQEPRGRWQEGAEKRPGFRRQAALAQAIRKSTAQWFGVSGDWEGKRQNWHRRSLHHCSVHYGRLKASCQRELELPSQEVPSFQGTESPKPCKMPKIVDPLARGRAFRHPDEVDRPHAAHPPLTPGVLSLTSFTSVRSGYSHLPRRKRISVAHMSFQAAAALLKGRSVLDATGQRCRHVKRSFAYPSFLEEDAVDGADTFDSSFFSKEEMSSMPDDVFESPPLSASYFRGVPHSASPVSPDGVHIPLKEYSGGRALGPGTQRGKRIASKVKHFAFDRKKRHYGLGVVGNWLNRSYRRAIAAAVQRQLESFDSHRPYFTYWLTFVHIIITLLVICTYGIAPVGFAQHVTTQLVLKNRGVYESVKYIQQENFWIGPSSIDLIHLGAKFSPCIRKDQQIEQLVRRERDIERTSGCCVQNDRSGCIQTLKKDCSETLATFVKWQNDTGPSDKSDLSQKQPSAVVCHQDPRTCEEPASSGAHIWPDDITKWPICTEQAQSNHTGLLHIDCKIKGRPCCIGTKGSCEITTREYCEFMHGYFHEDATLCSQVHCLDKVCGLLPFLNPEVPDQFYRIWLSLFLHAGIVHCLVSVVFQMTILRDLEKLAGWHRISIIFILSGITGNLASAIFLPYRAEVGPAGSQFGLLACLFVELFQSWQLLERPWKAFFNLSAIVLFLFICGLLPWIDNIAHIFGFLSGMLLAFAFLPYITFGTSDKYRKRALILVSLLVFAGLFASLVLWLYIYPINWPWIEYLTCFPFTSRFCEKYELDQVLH", "experiment": "co-IP; plasma membrane immunoprecipitation: DKO MEFs with or without 200 nM PMA for 5 min, intact cells on ice incubated with mouse anti-HA antibody for 1 hr, washed, lysed in TX-100 buffer, ProteinA-coupled agarose beads; blot for TACE"}, "[3]": {"biological_target": "T2, mouse iRhom2^Site1-3-3xHA (mouse)", "experiment": "co-IP; DKO MEFs stably transduced with iRhom2-3xHA forms, with or without PMA (20-200 nM, 15-30 min) or histamine (300 µM, 15 min); 1% Triton X-100, 150 mM NaCl, 50 mM Tris-HCl pH 7.4; HA antibody-coupled beads, 4°C; blots for TACE and 14-3-3"}, "[4]": {"biological_target": "T3, mouse iRhom2^Site1-2-3xHA (mouse) (UniProt Q80WQ6)", "T3 sequence": "T2 sequence with A357S, A359S, A360S, A361T", "experiment": "co-IP; DKO MEFs stably transduced with iRhom2-3xHA forms, with or without PMA (20-200 nM, 15-30 min) or histamine (300 µM, 15 min); 1% Triton X-100, 150 mM NaCl, 50 mM Tris-HCl pH 7.4; HA antibody-coupled beads, 4°C; blots for TACE and 14-3-3"}, "[5]": {"biological_target": "T4, mouse iRhom2^R18-3xHA (mouse) (UniProt Q80WQ6)", "T4 sequence": "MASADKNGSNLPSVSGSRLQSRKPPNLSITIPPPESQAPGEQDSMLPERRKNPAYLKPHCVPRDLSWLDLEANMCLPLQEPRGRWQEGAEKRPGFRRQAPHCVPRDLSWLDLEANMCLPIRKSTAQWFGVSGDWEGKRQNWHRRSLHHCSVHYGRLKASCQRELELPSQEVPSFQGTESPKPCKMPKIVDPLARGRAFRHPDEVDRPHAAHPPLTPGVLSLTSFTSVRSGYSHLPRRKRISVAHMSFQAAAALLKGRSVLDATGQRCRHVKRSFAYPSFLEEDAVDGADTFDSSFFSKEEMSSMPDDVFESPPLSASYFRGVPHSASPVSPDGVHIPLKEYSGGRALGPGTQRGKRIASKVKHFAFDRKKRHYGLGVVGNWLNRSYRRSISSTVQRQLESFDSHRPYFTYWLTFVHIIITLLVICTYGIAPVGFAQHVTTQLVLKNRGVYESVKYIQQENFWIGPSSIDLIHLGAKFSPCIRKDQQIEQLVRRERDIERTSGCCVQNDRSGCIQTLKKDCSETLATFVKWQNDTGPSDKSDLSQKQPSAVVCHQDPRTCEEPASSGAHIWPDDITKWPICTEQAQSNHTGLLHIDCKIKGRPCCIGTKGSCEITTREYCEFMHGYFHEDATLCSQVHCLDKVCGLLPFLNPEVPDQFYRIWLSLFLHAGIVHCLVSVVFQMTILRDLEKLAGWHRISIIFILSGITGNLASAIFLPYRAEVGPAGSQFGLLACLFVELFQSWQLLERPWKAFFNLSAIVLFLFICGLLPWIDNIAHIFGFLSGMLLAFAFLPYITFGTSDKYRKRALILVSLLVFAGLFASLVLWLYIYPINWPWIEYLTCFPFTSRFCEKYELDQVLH", "experiment": "co-IP; DKO MEFs stably transduced with iRhom2-3xHA forms, with or without PMA (20-200 nM, 15-30 min) or histamine (300 µM, 15 min); 1% Triton X-100, 150 mM NaCl, 50 mM Tris-HCl pH 7.4; HA antibody-coupled beads, 4°C; blots for TACE and 14-3-3"}}, "note": "Changes are numbered by the printed parent chain. These are yes or no findings as the source states them, for the method shown. In cells and extracts the contact can be indirect. Some results given as binding are weak or reduced against the parent protein; the word gives no strength."}
{"substance": "mature TACE (from UniProt Q9Z0F8 215-827) (enzyme)", "values": [{"measurement": "binding", "setting": "[1]", "value": "no binding"}, {"measurement": "binding", "setting": "[2]", "value": "binds"}, {"measurement": "binding", "setting": "[3]", "value": "binds"}, {"measurement": "binding", "setting": "[4]", "value": "binds"}, {"measurement": "binding", "setting": "[5]", "value": "binds"}]}
